Each structure is given as a SMILES string. Structures can show the parent of a compound that is named as a salt. The list shows a part of the results. Repeats in this data set agree poorly, so a single value says little.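 A screen tested FDA-approved drugs combined with one-eighth-MIC colistin against a clinical mcr-1-positive, multidrug-resistant E. coli isolate, measuring OD600 at 24 h. Controls were untreated bacteria (growth) and broth alone (blank). An OD600 under 0.2 marked a combination as active.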

The text below walks through data of the supplement of paper PMC11546906.

For the assay, the system named is Escherichia coli 42 (mcr-1-positive clinical isolate). The experiment in a line: OD600 after 24 h growth with compound plus colistin (absorbance units (OD600)); higher = more bacterial growth (less inhibition). Conditions: first compound 25 µM; colistin concentration 0.5 ug/mL; incubation time 24 h; 37 °C.
For the molecule `CCN(CC)C(=O)/C(C#N)=C/c1cc(O)c(O)c([N+](=O)[O-])c1` [Entacapone] + CCC(C)CCCC(=O)N[C@@H](CCN)C(=O)N[C@H](C(=O)N[C@@H](CCN)C(=O)N[C@H]1CCNC(=O)[C@H]([C@@H](C)O)NC(=O)[C@H](CCN)NC(=O)[C@H](CCN)NC(=O)[C@H](CC(C)C)NC(=O)[C@@H](CC(C)C)NC(=O)[C@H](CCN)NC1=O)[C@@H](C)O [colistin], the OD600 was inactive: 1.22.

Regarding `CC[C@@]1(O)C(=O)OCc2c1cc1n(c2=O)Cc2cc3c(CN(C)C)c(O)ccc3nc2-1` [Topotecan hydrochloride] + CCC(C)CCCC(=O)N[C@@H](CCN)C(=O)N[C@H](C(=O)N[C@@H](CCN)C(=O)N[C@H]1CCNC(=O)[C@H]([C@@H](C)O)NC(=O)[C@H](CCN)NC(=O)[C@H](CCN)NC(=O)[C@H](CC(C)C)NC(=O)[C@@H](CC(C)C)NC(=O)[C@H](CCN)NC1=O)[C@@H](C)O [colistin], the OD600 is inactive: 1.11.

Turning to `Cc1ccc(O)c([C@H](CCN(C(C)C)C(C)C)c2ccccc2)c1` [Tolterodine tartrate] + CCC(C)CCCC(=O)N[C@@H](CCN)C(=O)N[C@H](C(=O)N[C@@H](CCN)C(=O)N[C@H]1CCNC(=O)[C@H]([C@@H](C)O)NC(=O)[C@H](CCN)NC(=O)[C@H](CCN)NC(=O)[C@H](CC(C)C)NC(=O)[C@@H](CC(C)C)NC(=O)[C@H](CCN)NC1=O)[C@@H](C)O [colistin], the OD600 was inactive: 1.16.

Take `COC(=O)C1=C(C)NC(C)=C(C(=O)OC)C1c1ccccc1[N+](=O)[O-]` [Nifedipine] + CCC(C)CCCC(=O)N[C@@H](CCN)C(=O)N[C@H](C(=O)N[C@@H](CCN)C(=O)N[C@H]1CCNC(=O)[C@H]([C@@H](C)O)NC(=O)[C@H](CCN)NC(=O)[C@H](CCN)NC(=O)[C@H](CC(C)C)NC(=O)[C@@H](CC(C)C)NC(=O)[C@H](CCN)NC1=O)[C@@H](C)O [colistin]: the OD600 is inactive: 0.971.

As to `CCCCC(=O)O[C@]1(C(=O)CO)[C@@H](C)C[C@H]2[C@@H]3CCC4=CC(=O)C=C[C@]4(C)[C@@]3(F)[C@@H](O)C[C@@]21C` [Betamethasone valerate] + CCC(C)CCCC(=O)N[C@@H](CCN)C(=O)N[C@H](C(=O)N[C@@H](CCN)C(=O)N[C@H]1CCNC(=O)[C@H]([C@@H](C)O)NC(=O)[C@H](CCN)NC(=O)[C@H](CCN)NC(=O)[C@H](CC(C)C)NC(=O)[C@@H](CC(C)C)NC(=O)[C@H](CCN)NC1=O)[C@@H](C)O [colistin], the OD600 is inactive: 0.857.

Take `CO/N=C(\C(=O)N[C@@H]1C(=O)N2C(C(=O)O)=C(COC(C)=O)CS[C@H]12)c1csc(N)n1` [Cefotaxime sodium] + CCC(C)CCCC(=O)N[C@@H](CCN)C(=O)N[C@H](C(=O)N[C@@H](CCN)C(=O)N[C@H]1CCNC(=O)[C@H]([C@@H](C)O)NC(=O)[C@H](CCN)NC(=O)[C@H](CCN)NC(=O)[C@H](CC(C)C)NC(=O)[C@@H](CC(C)C)NC(=O)[C@H](CCN)NC1=O)[C@@H](C)O [colistin]: the OD600 is active: 0.046.

In the case of `CC(C)OC(=O)C(C)(C)Oc1ccc(C(=O)c2ccc(Cl)cc2)cc1` [Fenofibrate] + CCC(C)CCCC(=O)N[C@@H](CCN)C(=O)N[C@H](C(=O)N[C@@H](CCN)C(=O)N[C@H]1CCNC(=O)[C@H]([C@@H](C)O)NC(=O)[C@H](CCN)NC(=O)[C@H](CCN)NC(=O)[C@H](CC(C)C)NC(=O)[C@@H](CC(C)C)NC(=O)[C@H](CCN)NC1=O)[C@@H](C)O [colistin], the OD600 is inactive: 0.884.

For `CC(C)C[C@H](NC(=O)[C@H](Cc1ccccc1)NC(=O)c1cnccn1)B(O)O` [Bortezomib] + CCC(C)CCCC(=O)N[C@@H](CCN)C(=O)N[C@H](C(=O)N[C@@H](CCN)C(=O)N[C@H]1CCNC(=O)[C@H]([C@@H](C)O)NC(=O)[C@H](CCN)NC(=O)[C@H](CCN)NC(=O)[C@H](CC(C)C)NC(=O)[C@@H](CC(C)C)NC(=O)[C@H](CCN)NC1=O)[C@@H](C)O [colistin], the OD600 was inactive: 1.

With `NC(=O)N/N=C/c1ccc([N+](=O)[O-])o1` [Nitrofurazone] + CCC(C)CCCC(=O)N[C@@H](CCN)C(=O)N[C@H](C(=O)N[C@@H](CCN)C(=O)N[C@H]1CCNC(=O)[C@H]([C@@H](C)O)NC(=O)[C@H](CCN)NC(=O)[C@H](CCN)NC(=O)[C@H](CC(C)C)NC(=O)[C@@H](CC(C)C)NC(=O)[C@H](CCN)NC1=O)[C@@H](C)O [colistin], the OD600 is inactive: 1.1.

Regarding `CN(Cc1ccc(C(C)(C)C)cc1)Cc1cccc2ccccc12` [Butenafine hydrochloride] + CCC(C)CCCC(=O)N[C@@H](CCN)C(=O)N[C@H](C(=O)N[C@@H](CCN)C(=O)N[C@H]1CCNC(=O)[C@H]([C@@H](C)O)NC(=O)[C@H](CCN)NC(=O)[C@H](CCN)NC(=O)[C@H](CC(C)C)NC(=O)[C@@H](CC(C)C)NC(=O)[C@H](CCN)NC1=O)[C@@H](C)O [colistin], the OD600 is inactive: 0.88.

For `C[C@@H](O)[C@H]1C(=O)N2C(C(=O)O)=C(S[C@@H]3CN[C@H](C(=O)N(C)C)C3)[C@H](C)[C@H]12` [Meropenem] + CCC(C)CCCC(=O)N[C@@H](CCN)C(=O)N[C@H](C(=O)N[C@@H](CCN)C(=O)N[C@H]1CCNC(=O)[C@H]([C@@H](C)O)NC(=O)[C@H](CCN)NC(=O)[C@H](CCN)NC(=O)[C@H](CC(C)C)NC(=O)[C@@H](CC(C)C)NC(=O)[C@H](CCN)NC1=O)[C@@H](C)O [colistin], the OD600 was inactive: 1.2.

`CN(C)c1cc(NC(=O)CNC(C)(C)C)c(O)c2c1C[C@H]1C[C@H]3[C@H](N(C)C)C(=O)C(C(N)=O)=C(O)[C@@]3(O)C(=O)C1=C2O` [Tigecycline] + CCC(C)CCCC(=O)N[C@@H](CCN)C(=O)N[C@H](C(=O)N[C@@H](CCN)C(=O)N[C@H]1CCNC(=O)[C@H]([C@@H](C)O)NC(=O)[C@H](CCN)NC(=O)[C@H](CCN)NC(=O)[C@H](CC(C)C)NC(=O)[C@@H](CC(C)C)NC(=O)[C@H](CCN)NC1=O)[C@@H](C)O [colistin]: the OD600 is inactive: 1.11.

For the molecule `CCCC(=O)Nc1ccc(OCC(O)CNC(C)C)c(C(C)=O)c1` (centres undefined) [Acebutolol hydrochloride] + CCC(C)CCCC(=O)N[C@@H](CCN)C(=O)N[C@H](C(=O)N[C@@H](CCN)C(=O)N[C@H]1CCNC(=O)[C@H]([C@@H](C)O)NC(=O)[C@H](CCN)NC(=O)[C@H](CCN)NC(=O)[C@H](CC(C)C)NC(=O)[C@@H](CC(C)C)NC(=O)[C@H](CCN)NC1=O)[C@@H](C)O [colistin], the OD600 was inactive: 1.06.

For the molecule `CC(C)NCC(O)COc1ccc(CCOCC2CC2)cc1` (centres undefined) [Betaxolol hydrochloride] + CCC(C)CCCC(=O)N[C@@H](CCN)C(=O)N[C@H](C(=O)N[C@@H](CCN)C(=O)N[C@H]1CCNC(=O)[C@H]([C@@H](C)O)NC(=O)[C@H](CCN)NC(=O)[C@H](CCN)NC(=O)[C@H](CC(C)C)NC(=O)[C@@H](CC(C)C)NC(=O)[C@H](CCN)NC1=O)[C@@H](C)O [colistin], the OD600 was inactive: 1.1.

In the case of `O=NN(CCCl)C(=O)NCCCl` [Carmustine] + CCC(C)CCCC(=O)N[C@@H](CCN)C(=O)N[C@H](C(=O)N[C@@H](CCN)C(=O)N[C@H]1CCNC(=O)[C@H]([C@@H](C)O)NC(=O)[C@H](CCN)NC(=O)[C@H](CCN)NC(=O)[C@H](CC(C)C)NC(=O)[C@@H](CC(C)C)NC(=O)[C@H](CCN)NC1=O)[C@@H](C)O [colistin], the OD600 is inactive: 0.93.

Take `NS(=O)(=O)c1cc2c(cc1Cl)N=C(CSCc1ccccc1)NS2(=O)=O` [Benzthiazide] + CCC(C)CCCC(=O)N[C@@H](CCN)C(=O)N[C@H](C(=O)N[C@@H](CCN)C(=O)N[C@H]1CCNC(=O)[C@H]([C@@H](C)O)NC(=O)[C@H](CCN)NC(=O)[C@H](CCN)NC(=O)[C@H](CC(C)C)NC(=O)[C@@H](CC(C)C)NC(=O)[C@H](CCN)NC1=O)[C@@H](C)O [colistin]: the OD600 is inactive: 1.07.

Take `N=C(N)N` [Guanidine hydrochloride] + CCC(C)CCCC(=O)N[C@@H](CCN)C(=O)N[C@H](C(=O)N[C@@H](CCN)C(=O)N[C@H]1CCNC(=O)[C@H]([C@@H](C)O)NC(=O)[C@H](CCN)NC(=O)[C@H](CCN)NC(=O)[C@H](CC(C)C)NC(=O)[C@@H](CC(C)C)NC(=O)[C@H](CCN)NC1=O)[C@@H](C)O [colistin]: the OD600 was inactive: 1.12.

Take `CC(CN1c2ccccc2Sc2ccccc21)N(C)C` (centres undefined) [Promethazine hydrochloride] + CCC(C)CCCC(=O)N[C@@H](CCN)C(=O)N[C@H](C(=O)N[C@@H](CCN)C(=O)N[C@H]1CCNC(=O)[C@H]([C@@H](C)O)NC(=O)[C@H](CCN)NC(=O)[C@H](CCN)NC(=O)[C@H](CC(C)C)NC(=O)[C@@H](CC(C)C)NC(=O)[C@H](CCN)NC1=O)[C@@H](C)O [colistin]: the OD600 is inactive: 1.15.

As to `CCc1nc(N)nc(N)c1-c1ccc(Cl)cc1` [Pyrimethamine] + CCC(C)CCCC(=O)N[C@@H](CCN)C(=O)N[C@H](C(=O)N[C@@H](CCN)C(=O)N[C@H]1CCNC(=O)[C@H]([C@@H](C)O)NC(=O)[C@H](CCN)NC(=O)[C@H](CCN)NC(=O)[C@H](CC(C)C)NC(=O)[C@@H](CC(C)C)NC(=O)[C@H](CCN)NC1=O)[C@@H](C)O [colistin], the OD600 is inactive: 1.21.
